From patent US11173196B2, “Vectors for expression of prostate-associated antigens” (Pfizer Inc., priority 2013, dated 2021)
At least one compound was matched to its structure with a doubt left.

Key:
[1] = tested on: spontaneous mammary pad tumors; experiment: Anti-tumor efficacy of cancer vaccine with low dose sunitinib, survival; assay type: in vivo, BALB/neuT mice
subcutaneous TUBO tumor = experiment: Anti-tumor efficacy of cancer vaccine with sunitinib and anti-CTLA-4 antibody, Kaplan-Meier survival; assay type: in vivo, BALB/neuT mice; details: Sutent 20 mg/kg daily oral with control vaccine

For CCN(CC)CCNC(=O)c1c(C)[nH]c(/C=C2\C(=O)Nc3ccc(F)cc32)c1C [Sunitinib, butanedioic acid, hydroxy-, (2S)—, compound with N-[2-(diethylamino)ethyl]-5-[(Z)-(5-fluoro-1,2-dihydro-2-oxo-3H-indol-3-ylidine)methyl]-2,4-dimethyl-1H-pyrrole-3-carboxamide (1:1)], which survival ([1]; low dose Sutent 5 mg/kg twice a day given with the cancer vaccine, P<0.0001 by Log rank test) is on record?
Its survival is “more persistent and significant improvement of survival”.

What about the survival ([1]; low dose Sutent monotherapy, 5 mg/kg orally twice a day for 112 days) of the same molecule?
Its survival is “quick and temporary improvement in the survival”.

And the “survival time (Kaplan-Meier)” value (subcutaneous TUBO tumor)?
The value was “Increased survival time”.
